Test results from PubChem BioAssay AID2685 (National Center for Advancing Translational Sciences (NCATS), 2010).
Some of the results follow. These are further read-outs of the screen, such as a control signal, another cell line or another target. No call is given for them. The list favours compounds with an active or inconclusive main result. Potencies come from curve fits of mixed quality, noted in brackets.

Assay: qHTS Assay for Lipid Storage Modulators in Drosophila S3 Cells;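 as to cell number change: cells counted by Cell Tracker Red CMTPX staining in the red channel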
Settings: BODIPY lipid droplet fluorescence, 18-24 h; for cell number change: measured here: cell count max response, cells fed with added oleic acid
In short: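 Drosophila S3 cells loaded with oleic acid (400 uM, as added) and compounds at several concentrations; lipid droplets imaged by 488-nm laser-scanning cytometry, 500–530 nm intensity and object ratio to cell channel. Percent activity normalized to 20 uM Triacsin C.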

[1] = measured here: cell number channel AC50, cells fed with added oleic acid
[2] = measured here: lipid fluorescence (Fed channel) AC50, cells fed with added oleic acid

SMILES	cell number change [%]	AC50 [1]	AC50 [2]
Cc1ccc2c(COC(=O)c3n[nH]c4ccccc34)cc(=O)oc2c1	-12.6	–	–
COc1cc2c(cc1OC)C(c1cc3cccc(C)c3[nH]c1=O)N(C(=O)c1ccco1)CC2 (configuration not stated)	7.69	–	–
CCC1(CC)NC(=O)N(CC(=O)OCC(=O)NC(=O)c2ccccc2OC)C1=O	-12	0.00517 µM [falling, full curve, poor fit]	–
Cc1cccc(NC(=O)CSc2nc3ccccc3nc2N2CCCC2)c1	12.7	–	–
Cc1ccc(N2C(=O)CS(=O)(=O)CC2=O)cc1	-24.6	–	–
O=C(CSc1nnc(NC(=O)c2ccco2)s1)NCc1ccc2c(c1)OCO2	13	0.231 µM [rising, partial curve, poor fit]	1.16 µM [rising, single point]
COc1cccc(N(CC(=O)NCCSCc2ccc(C)cc2)S(C)(=O)=O)c1	-32.6	20.6 µM [falling, single point]	29.1 µM [falling, single point]
CCOC(=O)Cn1c(-c2cccnc2Cl)nc2cc(Cl)c(Cl)cc21	27.2	0.651 µM [rising, full curve, poor fit]	6.51 µM [rising, partial curve, poor fit]
CCN(c1ccccc1)c1nc2ccsc2c(=O)s1	–	–	0.58 µM [falling, single point]
CC1(C)CC(N2CCN(C(c3ccccc3)c3ccccc3)CC2)=CC(=[N+]2CCCCC2)C1	–	–	1.84 µM [falling, full curve]
CCN1/C(=C/c2ccc3cc(C)cc(C)c3[n+]2CC)Sc2cc(C)ccc21	-60.5	7.31 µM [falling, partial curve]	–
CC(C)c1ccc(CN2CC(C(=O)O)CC2=O)cc1 (configuration not stated)	-45.4	29.1 µM [falling, single point]	29.1 µM [falling, single point]
COc1ccccc1-c1cc(C(=O)NCCN2CCOCC2)no1	39.5	23.1 µM [rising, single point]	25.9 µM [rising, single point]
CCn1c(SCC(=O)N2CCN(c3ccccc3)CC2)nc2c([nH]c3ccccc32)c1=O	-2.55	–	0.13 µM [rising, full curve, poor fit]
O=C(NCC1CCCO1)c1ccccc1-c1nc(-c2ccccc2)no1 (configuration not stated)	-7.43	–	–
O=C(O)c1ccc(C=C(c2nc3ccccc3s2)c2nc3ccccc3s2)cc1	–	–	6.51 µM [falling, single point]
COc1ccc(NC(=O)COC(=O)COc2cccc3c2OC(C)(C)C3)cc1	-17.3	0.058 µM [falling, full curve, poor fit]	0.259 µM [falling, full curve]

Reformatted comma-delimited: 2 of the compounds above.
SMILES,cell number change [%],AC50 [1],AC50 [2]
O=C(O)c1ccc(C=C(c2nc3ccccc3s2)c2nc3ccccc3s2)cc1,–,–,"6.51 µM [falling, single point]"
COc1ccc(NC(=O)COC(=O)COc2cccc3c2OC(C)(C)C3)cc1,-17.3,"0.058 µM [falling, full curve, poor fit]","0.259 µM [falling, full curve]"
